Assay results from paper PMC6153280, “Roles of distal aspartate and arginine of B-class dye-decolorizing peroxidase in heterolytic hydrogen peroxide cleavage” (The Journal of Biological Chemistry, 2018).
No constants are given. Whether binding was seen depends on the method and setting. Some binding calls cover weakened binding; strength is not graded here.

Biological target: WT B-class dye-decolorizing peroxidase from Klebsiella pneumoniae (KpDyP) (Klebsiella pneumoniae)
Assay: crystal structure; vapor diffusion, 22 °C, PEG 3350, MgCl2, 0.1 M Tris-HCl pH 8.5; two subunits (chains A and B) in the structures; both purified

B1: WT B-class dye-decolorizing peroxidase from Klebsiella pneumoniae (KpDyP) (enzyme, UniProt A0A0W8ATM9 1-299, looked up)
chain: MSQVQSGILPEHCRAAIWIEANLKGDVNALREASKIFVDNVATFQAKFPDAKLGAVVAFGNNVWRQLSGGEGADELKDFPVYGKGLAPSTQYDLLIHILSARHEVNFSVAQAALAAFGDAIDVKEEIHGFRWVEERDLSGFVDGTENPAGEETRREVAVIKDGVDAGGSYVFVQRWEHNLKQLNRMSVPDQEMMIGRTKDANEEIDGDERPVTSHLSRVDLKEDGKGLKIVRQSLPYGTASGTHGLYFCAYCARLYNIEQQLLSMFGDTDGKRDAMLRFTKPVTGGYYFAPSLERIQAL
notes: B-class dye-decolorizing peroxidase (KpDyP), Klebsiella pneumoniae; codon-optimized DNA cloned into pGEX-6P1 with primers that run from the ATG start to the stop codon; about 35 kDa per subunit; One heme b per subunit; also called WT KpDyP; source: E. coli BL21 (DE3) pLysS, purified (GSTrap, on-column HRV 3C cleavage, SEC)
binding: binds
